PubChem BioAssay AID652272 – Drosophila RNAi Screening Center | 2013
The deposit covers about 21,000 reagents; below is an unselected part of those with a known target gene and a result. In the full data, 503 (2.4%) got an active call. 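Raw plate light values, not normalised; calls rest on replicate z-scores that were not deposited; hits include reporter decreases as well as increases.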 The numbers tell different reagents against one gene apart. Not stated in the record: the amount of reagent, the time to read-out.

Aim: 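Genome-wide knock-down search for components of Hedgehog signalling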 (primary screen)
Cells: Drosophila clone 8 (Cl8) cells
Reagent: long dsRNA against Drosophila genes
Read-out: 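Firefly light from a Hedgehog-responsive ptc promoter reporter and Renilla reference light, both read on a plate reader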
Direction: firefly Hh reporter signal: higher = more ptc reporter light; Renilla reference signal: higher = more Renilla control light
Hit rule: 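Hit when the z-score averaged over two replicates is under -2 or over +3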
Calls: active = hit: reporter lowered or raised; inactive = not a hit

CG4194
- firefly Hh reporter signal, replicate 1: 1.55e5
- firefly Hh reporter signal, replicate 2: 75469
- Renilla reference signal, replicate 1: 2628
- Renilla reference signal, replicate 2: 2995
- Call: inactive

CG12880
- firefly Hh reporter signal, replicate 1: 88887
- firefly Hh reporter signal, replicate 2: 73349
- Renilla reference signal, replicate 1: 1981
- Renilla reference signal, replicate 2: 1760
- Call: inactive

Vajk3
- firefly Hh reporter signal, replicate 1: 88076
- firefly Hh reporter signal, replicate 2: 67509
- Renilla reference signal, replicate 1: 4379
- Renilla reference signal, replicate 2: 2810
- Call: inactive

kappaTry
- firefly Hh reporter signal, replicate 1: 77410
- firefly Hh reporter signal, replicate 2: 46994
- Renilla reference signal, replicate 1: 1952
- Renilla reference signal, replicate 2: 3712
- Call: inactive

Hdc
- firefly Hh reporter signal, replicate 1: 61163
- firefly Hh reporter signal, replicate 2: 26816
- Renilla reference signal, replicate 1: 2793
- Renilla reference signal, replicate 2: 1273
- Call: inactive

Osi6
- firefly Hh reporter signal, replicate 1: 68972
- firefly Hh reporter signal, replicate 2: 94467
- Renilla reference signal, replicate 1: 3523
- Renilla reference signal, replicate 2: 3270
- Call: inactive

crim
- firefly Hh reporter signal, replicate 1: 73108
- firefly Hh reporter signal, replicate 2: 67702
- Renilla reference signal, replicate 1: 3079
- Renilla reference signal, replicate 2: 3079
- Call: inactive

Topors
- firefly Hh reporter signal, replicate 1: 1.02e5
- firefly Hh reporter signal, replicate 2: 56426
- Renilla reference signal, replicate 1: 4304
- Renilla reference signal, replicate 2: 2473
- Call: inactive

CG30002
- firefly Hh reporter signal, replicate 1: 88048
- firefly Hh reporter signal, replicate 2: 2.38e5
- Renilla reference signal, replicate 1: 2116
- Renilla reference signal, replicate 2: 9858
- Call: inactive

Ski6
- firefly Hh reporter signal, replicate 1: 1.66e5
- firefly Hh reporter signal, replicate 2: 83152
- Renilla reference signal, replicate 1: 3961
- Renilla reference signal, replicate 2: 6916
- Call: inactive

dwg
- firefly Hh reporter signal, replicate 1: 94230
- firefly Hh reporter signal, replicate 2: 81440
- Renilla reference signal, replicate 1: 1600
- Renilla reference signal, replicate 2: 2429
- Call: inactive

Mapmodulin
- firefly Hh reporter signal, replicate 1: 1.20e5
- firefly Hh reporter signal, replicate 2: 81607
- Renilla reference signal, replicate 1: 5622
- Renilla reference signal, replicate 2: 3497
- Call: inactive

CG30460 #1
- firefly Hh reporter signal, replicate 1: 1.11e5
- firefly Hh reporter signal, replicate 2: 47732
- Renilla reference signal, replicate 1: 3226
- Renilla reference signal, replicate 2: 3968
- Call: inactive

CG30460 #2
- firefly Hh reporter signal, replicate 1: 28102
- firefly Hh reporter signal, replicate 2: 11937
- Renilla reference signal, replicate 1: 1095
- Renilla reference signal, replicate 2: 1133
- Call: inactive
